Data published in patent CN117624356A.
Results are given in words; binding and its absence hold for the method and conditions named. Some entries that bind do so weakly or less than the wild type.

T1: NfL in clinical samples (临床样本中的NfL) (UniProt P07196)
T1 sequence (looked up): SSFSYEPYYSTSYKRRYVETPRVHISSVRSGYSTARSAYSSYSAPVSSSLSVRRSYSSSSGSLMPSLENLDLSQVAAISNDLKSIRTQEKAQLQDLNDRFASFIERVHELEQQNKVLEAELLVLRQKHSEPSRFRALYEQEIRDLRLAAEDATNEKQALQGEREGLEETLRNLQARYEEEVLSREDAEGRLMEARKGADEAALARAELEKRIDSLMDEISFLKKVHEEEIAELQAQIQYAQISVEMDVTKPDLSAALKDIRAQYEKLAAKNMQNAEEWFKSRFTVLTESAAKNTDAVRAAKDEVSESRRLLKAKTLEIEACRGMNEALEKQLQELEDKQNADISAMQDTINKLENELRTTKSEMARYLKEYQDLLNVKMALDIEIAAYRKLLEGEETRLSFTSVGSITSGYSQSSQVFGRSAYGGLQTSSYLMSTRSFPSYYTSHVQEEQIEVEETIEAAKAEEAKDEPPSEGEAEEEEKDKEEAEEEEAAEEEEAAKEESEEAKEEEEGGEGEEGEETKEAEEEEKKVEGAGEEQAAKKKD

B1: Anti-NfL-rRmab-1 (antibody, V domains shown)
VH: QSVEESGGRLVTPGTPLTLTCTASGFSLSIHDMSWVRQAPGKGLEWIGLISSNNNTYYASWAKGRFTISKTSTTVDLKITSPTTEDTATYFCARGGFSTDLWGPGTPVTVSS
VL: DVVMTQTPASVSEPVGGTVTIKCQASQSIYTYLSWYQQKPGQPPKLLIYGASNLASGVSSRFKGSGSGTDYTLTISGVQCDDAATYYCQCTYFSSSYVGGFGGGTEVVVK
B2: Rabbit anti-NfL mAb (antibody, V domains shown)
VH: QSVEESGGRLVTPGTPLTLTCTASGIDLSNYAMNWVHQAPGKGLEWIAIIYASGSTYYTTWAKGRFTISKTSSTTVDLKITSPTTEDTATYFCARALSMTNVYTFNIWGPGTLVTVSS
VL: DVVMTQTPASVSEPVGGTVTIKCQASQNIYNNLAWYQQKPGQPPKLLIYKASTLASGVSSRFKGSGSGTEFTLTISDLECADAATYYCQCTYGSSYVAFGGGTEVVVK

Key:
[1] = molecular target: T1, NfL in clinical samples (临床样本中的NfL); test: sandwich chemiluminescence on clinical samples P1-P4
[2] = molecular target: T1, NfL in clinical samples (临床样本中的NfL); test: sandwich chemiluminescence on clinical samples P1-P4, capture antibody on beads

Binder	binding [1]	binding [2]
B1	binds	
B2		binds
